Results reported in patent publication CN110885375A.
These are yes or no findings as the source states them, for the method shown. Some binding calls cover weakened binding; strength is not graded here.

By UniProt entry, the sequences of proteins in these tests, tags left out. Residues count along the entry.
UniProt P14780, residues 20-707: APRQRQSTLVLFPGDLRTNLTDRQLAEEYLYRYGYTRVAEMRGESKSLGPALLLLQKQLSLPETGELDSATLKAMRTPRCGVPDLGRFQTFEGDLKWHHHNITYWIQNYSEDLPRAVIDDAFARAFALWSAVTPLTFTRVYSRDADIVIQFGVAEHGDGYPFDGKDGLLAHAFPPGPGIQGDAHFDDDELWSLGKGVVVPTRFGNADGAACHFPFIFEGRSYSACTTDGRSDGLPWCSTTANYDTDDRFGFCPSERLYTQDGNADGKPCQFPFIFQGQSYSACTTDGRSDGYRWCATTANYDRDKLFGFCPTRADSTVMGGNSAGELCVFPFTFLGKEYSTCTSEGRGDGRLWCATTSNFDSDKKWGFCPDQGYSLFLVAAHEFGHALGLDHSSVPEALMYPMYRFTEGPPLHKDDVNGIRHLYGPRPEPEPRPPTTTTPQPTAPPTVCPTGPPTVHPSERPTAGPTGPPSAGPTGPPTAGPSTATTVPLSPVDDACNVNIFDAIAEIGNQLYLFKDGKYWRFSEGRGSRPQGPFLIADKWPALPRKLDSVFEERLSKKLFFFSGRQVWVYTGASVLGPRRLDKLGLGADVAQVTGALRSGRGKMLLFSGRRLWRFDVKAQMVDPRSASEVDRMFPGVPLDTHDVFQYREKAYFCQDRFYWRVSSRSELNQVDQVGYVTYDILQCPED

How the values were obtained:
[1] = target: MMP-9蛋白 (基质金属蛋白酶-9) (UniProt P14780); experiment: ELISA of purified antibody on coated antigen, HRP anti-HA or anti-human Fc detection, OD450
[2] = target: MMP-9蛋白 (基质金属蛋白酶-9) (UniProt P14780); experiment: ELISA of crude periplasmic extracts on coated protein, anti-HA detection; positive if OD450 > 5x control well

Binder	binding [1]	binding [2]
SEQ ID NO 1 (VHH) VHH: QVQLQESGGGSVQAGGSLRLSCAVSGYDLSSYCMGWFRQAPGKAREGVAAIEKFGVPIYADSVKGRFAASKDYAKNTVYLQMNGLKPEDTAMYYCAADRYCGAGPLEPLRYRYWGQGTQVTVSS	binds	binds
SEQ ID NO 10 (VHH) VHH: QVQLQESGGGSVQAGGSLRLSCAASGYTYCGYRMSWYRQAPGKEREFVSSMRADGSTSYADSVKGRFTISQDNAKNILYLQMNSLKPEDTAMYYCKADLSTRYSTYADCPNKWGQGTQVTVSS	binds	binds
SEQ ID NO 11 (VHH) VHH: QVQLQESGGGSVQAGGSLRLSCVASGYTYCGYRMSWYRQAPGKEREFVSAIRGDGSTSYADSVKGRFTISQDNAKNTVYLQMNSLKPEDTAMYYCKADHSWDFTPRCPTQIWGQGTQVTVSS	binds	binds
SEQ ID NO 12 (VHH) VHH: QVQLQESGGGSVQAGGSLRLSCVASGYTYCGYRMSWYRQAPGKEREFVSAIRGDGSTSYADSVKGRFTISQDNAKNTVYLQMNSLKPEDTAMYYCKADHSWDFTPRCPTSIWGQGTQVTVSS	binds	binds
SEQ ID NO 13 (VHH) VHH: QVQLQESGGGSVQAGESLRLSCVASGYTYCGYRMSWYRQAPGKEREFVSAIRGDGSTSYADSVKGRFTISQDNAKNTVYLQMNSLKPEDTAMYYCKADHSWDFTPRCPTSIWGQGTQVTVSS	binds	binds
SEQ ID NO 14 (VHH) VHH: QVQLQESGGGSVQSGGSLRLSCVASGYTYCGYRMSWYRQAPGKEREFVSAIRGDGSTSYADSVKGRFTISQDNAKNTVYLQMNSLKPEDTAMYYCKADHSWDFTPRCPTSIWGQGTQVTVSS	binds	binds
SEQ ID NO 4 (VHH) VHH: QVQLQESGGGSVQTGGSLRLSCAASSYTFSTSCVAWFRQAPGKEREGVAGILFNGLTSYTDSVKGRFTVSKDNAKNTLYLQMNSLKPEDTAMYYCAAVSSPAGCLAPLRADSYTYWGQGTQVTVSS	binds	binds
SEQ ID NO 8 (VHH) VHH: QVQLQESGGGSVQAGGSLRLSCAASTASGYSDCRYRMSWYRRAPGKEREFVSSIWSDGSIRYADSVKGRFTISQDNAKNTMYLQMNSLKPEDTAMYFCKADLSIWSGRCPNTWGQGTQVTVSS	binds	binds
